Test results reported in publication PMC12066687 (Frontiers in Immunology, 2025).

Amino acid sequences for entries named in this document (tags omitted). Residues count along the entry.
UniProt Q05320, 33-650 limits assumed: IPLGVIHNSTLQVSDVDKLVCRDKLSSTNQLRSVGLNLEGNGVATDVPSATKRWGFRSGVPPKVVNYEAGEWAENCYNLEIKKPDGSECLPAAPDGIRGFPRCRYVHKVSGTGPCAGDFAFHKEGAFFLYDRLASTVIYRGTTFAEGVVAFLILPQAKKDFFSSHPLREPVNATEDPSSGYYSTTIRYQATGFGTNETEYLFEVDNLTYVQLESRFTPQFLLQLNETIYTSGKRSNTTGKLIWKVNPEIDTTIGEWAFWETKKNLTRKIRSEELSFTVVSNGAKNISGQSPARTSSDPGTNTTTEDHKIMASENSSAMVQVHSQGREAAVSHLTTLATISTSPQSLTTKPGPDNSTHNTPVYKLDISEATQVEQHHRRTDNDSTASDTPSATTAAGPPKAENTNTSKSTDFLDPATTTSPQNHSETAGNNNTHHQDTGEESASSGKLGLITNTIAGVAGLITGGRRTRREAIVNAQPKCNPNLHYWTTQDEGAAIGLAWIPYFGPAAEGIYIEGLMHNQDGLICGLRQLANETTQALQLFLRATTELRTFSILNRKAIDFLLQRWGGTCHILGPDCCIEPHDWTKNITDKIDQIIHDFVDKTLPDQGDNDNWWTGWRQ

Legend:
VSV-EBOV-GP = experiment: microbe, parasite or virus in culture; format: cell-based, Ebola virus (EBOV/H.sap-tc/COD/76/Yambuku-Mayinga); conditions: Zaire ebolavirus, Vero, 16 h
EBOV-GP = EBOV-GP (Zaire ebolavirus, UniProt Q05320); experiment: biochemical; format: binding, Zaire EBOV (strain Mayinga-76)

CC/C(=C(\c1ccccc1)c1ccc(OCCN(C)C)cc1)c1ccccc1 [Tamoxifen, tamoxifen, reference compound]
EC50 (VSV-EBOV-GP): 0.19 µM
Kd (EBOV-GP): 32 µM
